Measurements: US20160136246A1, “Novel Uses of GLP-1 Receptor Agonists in Patients Treated with Insulin and/or Suffering from Type 1 Diabetes” (NOVO NORDISK A/S, priority 2013, published 2016)
At least one structure is not confirmed: it was looked up by name or label, or the drawing left a doubt.

Key:
[1] = system: adults with type 1 diabetes; experiment: Randomised, double-blind crossover trial of liraglutide adjunct to insulin, 4 weeks of treatment: glycaemic control and safety; assay type: in vivo, human; conditions: for Body weight, estimated treatment difference / Daily insulin dose reduced by: 4 weeks
Protocol: Subjects received target dose for a minimum of 2 weeks.
After 4 weeks of treatment, estimated treatment differences in insulin dose, HbA1c, pulse and body weight were assessed. Hypoglycaemia and hypoglycaemic episodes and overall safety parameters were assessed throughout the treatment period.
Hypoglycaemia and/or hypoglycaemic episodes were defined and assessed according to the ADA Hypoglycaemic Classification (FIG. 3).

[2] = system: subjects with type 1 diabetes; experiment: Hypoglycaemic episodes during continuous glucose monitoring (CGM); assay type: in vivo, human; conditions: for Number of hypoglycaemic events during CGM, estimate liraglutide vs placebo: hypos less than 3.9 mmol/L

For `CCCCCCCCCCCCCCCC(=O)N[C@@H](CCC(=O)NCCCC[C@H](NC(=O)[C@H](C)NC(=O)[C@H](C)NC(=O)[C@H](CCC(N)=O)NC(=O)CNC(=O)[C@H](CCC(=O)O)NC(=O)[C@H](CC(C)C)NC(=O)[C@H](Cc1ccc(O)cc1)NC(=O)[C@H](CO)NC(=O)[C@H](CO)NC(=O)[C@@H](NC(=O)[C@H](CC(=O)O)NC(=O)[C@H](CO)NC(=O)[C@@H](NC(=O)[C@H](Cc1ccccc1)NC(=O)[C@@H](NC(=O)CNC(=O)[C@H](CCC(=O)O)NC(=O)[C@H](C)NC(=O)[C@@H](N)Cc1cnc[nH]1)[C@@H](C)O)[C@@H](C)O)C(C)C)C(=O)N[C@@H](CCC(=O)O)C(=O)N[C@@H](Cc1ccccc1)C(=O)N[C@H](C(=O)N[C@@H](C)C(=O)N[C@@H](Cc1c[nH]c2ccccc12)C(=O)N[C@@H](CC(C)C)C(=O)N[C@H](C(=O)N[C@@H](CCCNC(=N)N)C(=O)NCC(=O)N[C@@H](CCCNC(=N)N)C(=O)NCC(=O)O)C(C)C)[C@@H](C)CC)C(=O)O` [liraglutide], the “Body weight, estimated treatment difference” value ([1]; 0.6 mg group vs placebo) was -2.0 kg, the “Body weight, estimated treatment difference” value ([1]; 1.2 mg group vs placebo) was -3.7 kg and the “Daily insulin dose reduced by” value ([1]; 1.2 mg liraglutide vs placebo, adjunct to insulin) was 27%. The “Body weight, estimated treatment difference” value ([1]; 1.8 mg group vs placebo) was -3.3 kg, the “Daily insulin dose reduced by” value ([1]; 1.8 mg liraglutide vs placebo, adjunct to insulin) was 24% and the “Daily insulin dose, difference to placebo” value ([1]; liraglutide 0.6 mg vs placebo, adjunct to insulin) was “No difference”. For the same compound, the “Change in HbA1c from baseline after 4 weeks of treatment” value ([1]; liraglutide vs placebo, adjunct to insulin) was “No changes and no difference in changes”, the “Lower number of hypos vs placebo” value ([2]; 0.6 mg, CGM) was 31% and the “Number of hypoglycaemic events during CGM, estimate liraglutide vs placebo” value (“Number … estimate liraglutide vs placebo” for short) ([2]; 0.6 mg) was 0.69. The “Lower number of hypos vs placebo” value ([2]; 1.2 mg, CGM) was 35%, the “Number … estimate liraglutide vs placebo” value ([2]; 1.2 mg) was 0.65 and the “Lower number of hypos vs placebo” value ([2]; 1.8 mg, CGM) was 39%. The “Number … estimate liraglutide vs placebo” value ([2]; 1.8 mg) was 0.61, the “Number of hypoglycaemic values ≦3.9 mmol/L” value ([2]; liraglutide 1.2 mg, CGM) was 1.1 event per 1 patient day exposure and the “Duration of hypoglycaemic episodes (IG≦3.9 mmol/L) during CGM vs placebo” value ([2]; trend at 0.6 mg and 1.8 mg, statistically significant at 1.2 mg) was “reduced”.
